Record: PubChem BioAssay AID1259308 (NCATS, 2017)

- Assay: 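Candidate targets for better recombinant protein yield in mammalian cells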 (primary screen)
- Cell system: human HEK293 embryonic kidney cells stably expressing firefly luciferase (HEK-CMV-Luc2-Hygro)
- Reagent: single siRNA against human genes, 0.8 pmol siRNA per well
- Timing: 72 h
- Measured: 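Reporter luminescence and viable-cell signal on separate replicate plates, given as percent of non-targeting control and median/MAD z-scores, plus per-cell luciferase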
- Reading the numbers: total luciferase, z-score and total luciferase, % of control: higher = more reporter protein produced
- Hit rule: 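An siRNA counts as active if its total luciferase robust z-score exceeds 3; genes with two or more such siRNAs out of three were retested with fresh siRNAs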
- Meaning of the calls: active = raised luciferase; inactive = no rise
In all, the deposit lists about 59,000 reagents; this is a random part of them. About 1,510 of them (2.6%) were called active. 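Calls use total luciferase alone and ignore viability, so some active siRNAs may act by altering cell number.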 Entries without a mark were called inactive. Reagents against one gene are numbered here. Not all columns of the deposit are shown. Reagent sequences are not shown.

After knock-down of OSGIN2 (oxidative stress induced growth inhibitor family member 2) #1 the results were total luciferase, z-score -0.553; total luciferase, % of control 70.9.
Knock-down of OSGIN2 (oxidative stress induced growth inhibitor family member 2) #2 came out at: total luciferase, z-score -0.617; total luciferase, % of control 69.6.
Silencing of OSGIN2 (oxidative stress induced growth inhibitor family member 2) #3 gave: total luciferase, z-score -0.374; total luciferase, % of control 74.4.
Knock-down of NPY1R (neuropeptide Y receptor Y1) #1 gave: total luciferase, z-score 2.08; total luciferase, % of control 123.
NPY1R (neuropeptide Y receptor Y1) #2 showed total luciferase, z-score 0.115; total luciferase, % of control 84.2.
Silencing of NPY1R (neuropeptide Y receptor Y1) #3 gave: total luciferase, z-score 0.219; total luciferase, % of control 86.2.
After knock-down of FCN2 (ficolin 2) #1, the record shows total luciferase, z-score 0.0669; total luciferase, % of control 83.2.
FCN2 (ficolin 2) #2 scored total luciferase, z-score -0.0738; total luciferase, % of control 80.4.
After knock-down of FCN2 (ficolin 2) #3, the record shows total luciferase, z-score -1.43; total luciferase, % of control 53.4.
LOC283804 #1 scored total luciferase, z-score 1.77; total luciferase, % of control 117.
LOC283804 #2 scored total luciferase, z-score -1.6; total luciferase, % of control 50.1.
LOC283804 #3 scored total luciferase, z-score 1.65; total luciferase, % of control 115.
After knock-down of TOMM40L (translocase of outer mitochondrial membrane 40 like) #1, the screen gave total luciferase, z-score 0.855; total luciferase, % of control 98.9.
Knock-down of TOMM40L (translocase of outer mitochondrial membrane 40 like) #2 resulted in: total luciferase, z-score 0.494; total luciferase, % of control 91.7.
For TOMM40L (translocase of outer mitochondrial membrane 40 like) #3, the values are total luciferase, z-score 0.309; total luciferase, % of control 88.

Part of the list above, reformatted.
Gene | reagent | total luciferase, z-score | total luciferase, % of control
NPY1R (neuropeptide Y receptor Y1) | 2 | 0.115 | 84.2
NPY1R (neuropeptide Y receptor Y1) | 3 | 0.219 | 86.2

Additional records follow:
SFRP2 (secreted frizzled related protein 2) #1 gave total luciferase, z-score -0.193; total luciferase, % of control 78.1.
Silencing of SFRP2 (secreted frizzled related protein 2) #2 gave: total luciferase, z-score 0.981; total luciferase, % of control 101.
SFRP2 (secreted frizzled related protein 2) #3 showed total luciferase, z-score 0.522; total luciferase, % of control 92.3.
Against GRAMD2B (GRAM domain containing 2B) #1, the entry reads total luciferase, z-score -0.174; total luciferase, % of control 78.4.
GRAMD2B (GRAM domain containing 2B) #2 showed total luciferase, z-score -0.529; total luciferase, % of control 71.4.
Knock-down of GRAMD2B (GRAM domain containing 2B) #3 gave: total luciferase, z-score -0.343; total luciferase, % of control 75.1.
Silencing of ADAM20 (ADAM metallopeptidase domain 20) #1 resulted in: total luciferase, z-score -0.605; total luciferase, % of control 69.9.
After knock-down of ADAM20 (ADAM metallopeptidase domain 20) #2, the screen gave total luciferase, z-score -0.991; total luciferase, % of control 62.2.
After knock-down of ADAM20 (ADAM metallopeptidase domain 20) #3 the results were total luciferase, z-score -0.853; total luciferase, % of control 64.9.
After knock-down of IL17A (interleukin 17A) #1 the results were total luciferase, z-score 0.538; total luciferase, % of control 92.6.
IL17A (interleukin 17A) #2 scored total luciferase, z-score -0.283; total luciferase, % of control 76.3.
For IL17A (interleukin 17A) #3, the entry reads total luciferase, z-score -1.23; total luciferase, % of control 57.3.
After knock-down of EIF3F (eukaryotic translation initiation factor 3 subunit F) #1 the results were total luciferase, z-score -2.12; total luciferase, % of control 39.7.
Against EIF3F (eukaryotic translation initiation factor 3 subunit F) #2, the entry reads total luciferase, z-score -0.977; total luciferase, % of control 62.4.
EIF3F (eukaryotic translation initiation factor 3 subunit F) #3 scored total luciferase, z-score -2.25; total luciferase, % of control 37.1.
Against FLG2 (filaggrin 2) #1 the deposit lists total luciferase, z-score -0.232; total luciferase, % of control 77.3.
With knock-down of FLG2 (filaggrin 2) #2, the record shows total luciferase, z-score 0.887; total luciferase, % of control 99.5.
FLG2 (filaggrin 2) #3 gave total luciferase, z-score -1.25; total luciferase, % of control 56.9.
After knock-down of NFE2 (nuclear factor, erythroid 2) #1, the screen gave total luciferase, z-score -0.483; total luciferase, % of control 72.3.
Depletion of NFE2 (nuclear factor, erythroid 2) #2 gave: total luciferase, z-score -0.322; total luciferase, % of control 75.5.
NFE2 (nuclear factor, erythroid 2) #3 scored total luciferase, z-score 2.09; total luciferase, % of control 124.
With knock-down of C10orf55 (chromosome 10 putative open reading frame 55) #1 the results were total luciferase, z-score -1.46; total luciferase, % of control 52.8.
C10orf55 (chromosome 10 putative open reading frame 55) #2 showed total luciferase, z-score -0.611; total luciferase, % of control 69.7.
With knock-down of C10orf55 (chromosome 10 putative open reading frame 55) #3, the screen gave total luciferase, z-score -0.518; total luciferase, % of control 71.6.
For BCS1L (BCS1 ubiquinol-cytochrome c reductase complex chaperone) #1 the deposit lists total luciferase, z-score 0.534; total luciferase, % of control 92.5.
Against BCS1L (BCS1 ubiquinol-cytochrome c reductase complex chaperone) #2 the deposit lists total luciferase, z-score -0.152; total luciferase, % of control 78.9.
BCS1L (BCS1 ubiquinol-cytochrome c reductase complex chaperone) #3 gave total luciferase, z-score 1.18; total luciferase, % of control 105.
